The target in the assay is T1, human G-Protein Coupled Receptor HNFDS78 (human) (UniProt O00421).
T1 sequence: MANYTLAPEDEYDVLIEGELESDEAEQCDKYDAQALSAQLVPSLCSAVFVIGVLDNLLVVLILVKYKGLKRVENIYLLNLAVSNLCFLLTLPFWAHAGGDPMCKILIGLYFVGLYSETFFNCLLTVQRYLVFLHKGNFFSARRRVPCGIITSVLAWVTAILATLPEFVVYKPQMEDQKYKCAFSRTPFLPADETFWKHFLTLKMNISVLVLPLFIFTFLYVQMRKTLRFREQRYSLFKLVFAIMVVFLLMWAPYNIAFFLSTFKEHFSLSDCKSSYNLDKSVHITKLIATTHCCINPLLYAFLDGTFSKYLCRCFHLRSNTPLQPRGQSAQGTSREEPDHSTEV
In words: binding of iodinated chemokine to membranes of COS cells transiently expressing the receptor.

The values that follow come from US20020076760A1.

Results are given in words; binding and its absence hold for the method and conditions named. Some entries that bind do so weakly or less than the wild type.

B1: human chemokine β-8 (ligand)
chain: RVTKDAETEFMMSKLPLENPVLLDRFHATSADCCISYTPRSIPCSLLESYFETNSECSKPGVIFLTKKGRRFCANPSDKQVQVCMRMLKLDTRIKTRKN
modifications: iodinated (radiolabel; residue not stated)
With B1, the binding result is reported as “binds”.
